Patent US20170183415A1
Results are given in words; binding and its absence hold for the method and conditions named. Some results given as binding are weak or reduced against the parent protein; the word gives no strength.

B1: CAR1 Soluble scFv (humanized anti-CD123 scFv variant) (scFv)
scFv: DIVLTQSPDSLAVSLGERATINCRASESVDNYGNTFMHWYQQKPGQPPKLLIYRASNLESGVPDRFSGSGSRTDFTLTISSLQAEDVAVYYCQQSNEDPPTFGQGTKLEIKGGGGSGGGGSGGGGSGGGGSQIQLVQSGSELKKPGASVKVSCKASGYIFTNYGMNWVRQAPGQGLEWMGWINTYTGESTYSADFKGRFVFSLDTSVSTAYLQINALKAEDTAVYYCARSGGYDPMDYWGQGTTVTVSSGSHHHHHHHHH
B2: CAR2 Soluble scFv (humanized anti-CD123 scFv variant) (scFv)
scFv: DIVLTQSPDSLAVSLGERATINCRASESVDNYGNTFMHWYQQKPGQPPKLLIYRASNLESGVPDRFSGSGSRTDFTLTISSLQAEDVAVYYCQQSNEDPPTFGQGTKLEIKGGGGSGGGGSGGGGSGGGGSQIQLVQSGAEVKKPGASVKVSCKASGYIFTNYGMNWVRQAPGQRLEWMGWINTYTGESTYSADFKGRVTITLDTSASTAYMELSSLRSEDTAVYYCARSGGYDPMDYWGQGTTVTVSSGSHHHHHHHHH
B3: CAR 3 Soluble scFv (humanized anti-CD123 scFv variant) (scFv)
scFv: EIVLTQSPATLSLSPGERATLSCRASESVDNYGNTFMHWYQQKPGQAPRLLIYRASNLESGIPARFSGSGSRTDFTLTISSLEPEDVAVYYCQQSNEDPPTFGQGTKLEIKGGGGSGGGGSGGGGSGGGGSQIQLVQSGSELKKPGASVKVSCKASGYIFTNYGMNWVRQAPGQGLEWMGWINTYTGESTYSADFKGRFVFSLDTSVSTAYLQINALKAEDTAVYYCARSGGYDPMDYWGQGTTVTVSSGSHHHHHHHHH
B4: CAR4 Soluble scFv (humanized anti-CD123 scFv variant) (scFv)
scFv: EIVLTQSPATLSLSPGERATLSCRASESVDNYGNTFMHWYQQKPGQAPRLLIYRASNLESGIPARFSGSGSRTDFTLTISSLEPEDVAVYYCQQSNEDPPTFGQGTKLEIKGGGGSGGGGSGGGGSGGGGSQIQLVQSGAEVKKPGASVKVSCKASGYIFTNYGMNWVRQAPGQRLEWMGWINTYTGESTYSADFKGRVTITLDTSASTAYMELSSLRSEDTAVYYCARSGGYDPMDYWGQGTTVTVSSGSHHHHHHHHH
B5: CAR5 Soluble scFv (humanized anti-CD123 scFv variant) (scFv)
scFv: QIQLVQSGSELKKPGASVKVSCKASGYIFTNYGMNWVRQAPGQGLEWMGWINTYTGESTYSADFKGRFVFSLDTSVSTAYLQINALKAEDTAVYYCARSGGYDPMDYWGQGTTVTVSSGGGGSGGGGSGGGGSGGGGSDIVLTQSPDSLAVSLGERATINCRASESVDNYGNTFMHWYQQKPGQPPKLLIYRASNLESGVPDRFSGSGSRTDFTLTISSLQAEDVAVYYCQQSNEDPPTFGQGTKLEIKGSHHHHHHHHH
B6: CAR6 Soluble scFv (humanized anti-CD123 scFv variant) (scFv)
scFv: QIQLVQSGSELKKPGASVKVSCKASGYIFTNYGMNWVRQAPGQGLEWMGWINTYTGESTYSADFKGRFVFSLDTSVSTAYLQINALKAEDTAVYYCARSGGYDPMDYWGQGTTVTVSSGGGGSGGGGSGGGGSGGGGSEIVLTQSPATLSLSPGERATLSCRASESVDNYGNTFMHWYQQKPGQAPRLLIYRASNLESGIPARFSGSGSRTDFTLTISSLEPEDVAVYYCQQSNEDPPTFGQGTKLEIKGSHHHHHHHHH
B7: CAR7 Soluble scFv (humanized anti-CD123 scFv variant) (scFv)
scFv: QIQLVQSGAEVKKPGASVKVSCKASGYIFTNYGMNWVRQAPGQRLEWMGWINTYTGESTYSADFKGRVTITLDTSASTAYMELSSLRSEDTAVYYCARSGGYDPMDYWGQGTTVTVSSGGGGSGGGGSGGGGSGGGGSDIVLTQSPDSLAVSLGERATINCRASESVDNYGNTFMHWYQQKPGQPPKLLIYRASNLESGVPDRFSGSGSRTDFTLTISSLQAEDVAVYYCQQSNEDPPTFGQGTKLEIKGSHHHHHHHHH
B8: CAR8 Soluble scFv (humanized anti-CD123 scFv variant) (scFv)
scFv: QIQLVQSGAEVKKPGASVKVSCKASGYIFTNYGMNWVRQAPGQRLEWMGWINTYTGESTYSADFKGRVTITLDTSASTAYMELSSLRSEDTAVYYCARSGGYDPMDYWGQGTTVTVSSGGGGSGGGGSGGGGSGGGGSEIVLTQSPATLSLSPGERATLSCRASESVDNYGNTFMHWYQQKPGQAPRLLIYRASNLESGIPARFSGSGSRTDFTLTISSLEPEDVAVYYCQQSNEDPPTFGQGTKLEIKGSHHHHHHHHH

Molecular target: T1, immobilized CD123 (UniProt P26951)
T1 sequence (looked up): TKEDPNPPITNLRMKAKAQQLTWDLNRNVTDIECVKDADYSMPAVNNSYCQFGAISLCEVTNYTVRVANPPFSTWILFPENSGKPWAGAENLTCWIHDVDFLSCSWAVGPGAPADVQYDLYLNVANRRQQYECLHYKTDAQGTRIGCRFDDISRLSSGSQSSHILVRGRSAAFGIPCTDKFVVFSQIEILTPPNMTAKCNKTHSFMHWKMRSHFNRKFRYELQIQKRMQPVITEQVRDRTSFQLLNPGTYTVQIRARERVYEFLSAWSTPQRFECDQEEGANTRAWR
Assay: ELISA, soluble His-tagged scFv on immobilized CD123

| Binder | binding |
| --- | --- |
| B1 | binds |
| B2 | binds |
| B3 | binds |
| B4 | binds |
| B5 | binds |
| B6 | binds |
| B7 | binds |
| B8 | binds |
